# In patent publication US20200297795A1:
# Molecular target: mouse CD40 with the CD154-interacting domain knocked out (B6.CD40KO) (mouse)
# Test: flow cytometry, FITC-conjugated KGYY6 on PBMC
binder,measurement,value
AKKGYY (FITC-conjugated (site of the label not stated)) [FITC-conjugated KGYY6 peptide],binding,no binding

# Results are given in words; binding and its absence hold for the method and conditions named.
